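HEK293 cells carrying a CMV promoter luciferase reporter, with luminescence read 24 h after treatment to check for nonspecific loss of reporter signal.
Percent change in reporter signal versus neutral control wells at the top tested concentration; more negative values mean stronger inhibition.
Inconclusive means the independent runs disagreed, the fit was flat at 30 to 70% inhibition, or the curve fit was poor.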

Values are in %.
All entries here are filed as inconclusive.
Only part of the assay is shown, chiefly results filed as inconclusive.

| # | compound | tested on / at | activity change (%) |
|---|---|---|---|
| 1 | `COc1ccc(S(=O)(=O)N(C)C[C@@H]2OCCCC[C@H](C)Oc3ccc(NS(=O)(=O)c4ccc(Cl)cc4)cc3C(=O)N([C@H](C)CO)C[C@@H]2C)cc1` | at 35 µM (top of the series) | -15.21 |
| 2 | `C[C@H]1CN([C@@H](C)CO)S(=O)(=O)c2ccc(C#Cc3ccc(F)cc3)cc2O[C@H]1CN(C)C(=O)NC1CCCCC1` | at 35 µM (top of the series) | -7.642 |
| 3 | `COc1ccc(NC(=O)C(=O)NCC2CCCN2S(=O)(=O)c2ccc(C)cc2)cc1` (stereo unspecified) | at 35 µM (top of the series) | -44.43 |
| 4 | `Cc1cc(Br)c(OCc2ccc(C(=O)N/N=C/c3ccc[nH]3)cc2)c(Br)c1` | at 35 µM (top of the series) | 314.8 |
| 5 | `COc1cccc(C(c2nnnn2-c2ccc3c(c2)OCCO3)N2CCC(n3c(=O)[nH]c4ccccc43)CC2)c1OC` (stereo unspecified) | at 35 µM (top of the series) | -99.72 |
| 6 | `N#Cc1ccc(-c2ccc(C3[C@@H]4CN(C(=O)c5ccc6c(c5)OCO6)C[C@H]3N4)cc2)cc1` (stereo partly specified) | at 35 µM (top of the series) | 4.738 |
| 7 | `C[C@@H]1CCCCO[C@@H](CN(C)Cc2ccc(C(F)(F)F)cc2)[C@@H](C)CN([C@@H](C)CO)C(=O)c2cc(NS(=O)(=O)c3ccc(Cl)cc3)ccc2O1` | at 35 µM (top of the series) | -34.51 |
| 8 | `COc1ccccc1CNC(=O)c1ccc2nc3[nH]c4ccccc4c3nc2c1` | at 35 µM (top of the series) | 10.44 |
| 9 | `Oc1c(Cl)cc(Cl)c(Cl)c1Cc1c(O)c(Cl)cc(Cl)c1Cl` | at 35 µM (top of the series) | -63.45 |
| 10 | `C=CC(=O)N1C/C(=C/c2ccc(F)cc2)C(=O)/C(=C\c2ccc(F)cc2)C1` | at 35 µM (top of the series) | -96.45 |
| 11 | `CCOCCCNC(=O)c1ccc2c(c1)N=C(CC)c1cc(Br)ccc1S2` | at 35 µM (top of the series) | -63.87 |
| 12 | `COc1cc(/C=N\NC(=O)c2ccc(-c3ccccc3)cc2)cc(OC)c1OC(C)=O` | at 35 µM (top of the series) | 4.936 |
| 13 | `C[C@H](CO)N1C[C@H](C)[C@@H](CN(C)S(=O)(=O)c2ccccc2)OCCCC[C@H](C)Oc2ccc(NS(=O)(=O)c3ccc(Cl)cc3)cc2C1=O` | at 35 µM (top of the series) | -29.83 |
| 14 | `Cc1ccc(OC(=O)N(C)C[C@@H]2OCc3ccccc3-c3c(n(C)c4ccccc34)C(=O)N([C@@H](C)CO)C[C@H]2C)cc1` | at 35 µM (top of the series) | -37.05 |
| 15 | `C[C@@H]1CN([C@H](C)CO)S(=O)(=O)c2ccc(C#Cc3ccncc3)cc2O[C@H]1CN(C)C(=O)C1CCCCC1` | at 35 µM (top of the series) | -12.57 |
| 16 | `O=C(CCl)N(c1ccccc1)C1CCCCC1` | at 35 µM (top of the series) | -47.41 |
| 17 | `C[C@@H]1CCCCO[C@H](CN(C)Cc2ccc(C(F)(F)F)cc2)[C@@H](C)CN([C@@H](C)CO)C(=O)c2cc(NC(=O)c3ccccc3)ccc2O1` | at 35 µM (top of the series) | -62.12 |
| 18 | `C[C@@H]1CCCCO[C@H](CN(C)Cc2ccc(Cl)c(Cl)c2)[C@@H](C)CN([C@@H](C)CO)C(=O)c2cc(NC(=O)Nc3ccc(C(F)(F)F)cc3)ccc2O1` | at 35 µM (top of the series) | -47.32 |
| 19 | `CC(C)CC#Cc1ccc2c(c1)O[C@@H](CN(C)Cc1ccncc1)[C@H](C)CN([C@H](C)CO)S2(=O)=O` | at 35 µM (top of the series) | -27.21 |
| 20 | `O=C(CSc1ncccc1-c1nc2ccccc2[nH]1)N1CCc2ccccc21` | at 35 µM (top of the series) | 120.5 |
| 21 | `C=C1C(=O)C2=CC1CCC(=O)C1(C)CCC(OC(C)=O)C(C)(C)C1CC2O` (stereo unspecified) | at 35 µM (top of the series) | -53.15 |
| 22 | `COC1=C(C)C(=O)C2=C(C1=O)C(CO)N1C(C#N)C3CC4C(C1C2N1CCOC41)N3C` (stereo unspecified) | at 35 µM (top of the series) | -75.93 |
| 23 | `C[C@H]1CCCCO[C@H](CN(C)C(=O)Nc2ccc(C(F)(F)F)cc2)[C@@H](C)CN([C@@H](C)CO)C(=O)c2cc(NS(=O)(=O)c3ccc(Cl)cc3)ccc2O1` | at 35 µM (top of the series) | -41.65 |
| 24 | `C[C@@H]1CCCCO[C@H](CN(C)S(=O)(=O)c2ccc(Cl)cc2)[C@H](C)CN([C@@H](C)CO)C(=O)c2cc(NS(=O)(=O)c3ccc(F)cc3)ccc2O1` | at 35 µM (top of the series) | -18.68 |
| 25 | `CCS(=O)(=O)c1ncc(Cl)c(C(=O)Nc2ccc(S(=O)(=O)N(C)c3ccccc3)cc2)n1` | at 35 µM (top of the series) | -65.63 |
| 26 | `COc1ccc(C(=O)N/N=C/c2ccc(OC(=O)c3cccs3)cc2)cc1` | at 35 µM (top of the series) | 16.3 |
| 27 | `C[C@@H]1CN([C@H](C)CO)C(=O)c2cc(NS(=O)(=O)c3cccs3)ccc2O[C@@H](C)CCCCO[C@@H]1CN(C)Cc1ccc(Cl)c(Cl)c1` | at 35 µM (top of the series) | -47.21 |
| 28 | `Cc1ccc(/C=C/C(=O)N2CCN(c3cccc(C(F)(F)F)c3)CC2)cc1` | at 35 µM (top of the series) | -24.27 |
| 29 | `Oc1ccc2ccccc2c1N=Nc1nccs1` | at 35 µM (top of the series) | -29.24 |
| 30 | `COc1ccc(S(=O)(=O)Nc2ccc3c(c2)C(=O)N([C@H](C)CO)C[C@@H](C)[C@@H](CN(C)Cc2ccc(C(F)(F)F)cc2)OCCCC[C@H](C)O3)cc1` | at 35 µM (top of the series) | -27.7 |
| 31 | `CCS(=O)(=O)N1Cc2ccccc2CC1C(=O)Nc1nnc(SCc2c(Cl)cccc2Cl)s1` (stereo unspecified) | at 35 µM (top of the series) | -23.28 |
| 32 | `CC12CCC(O)CC1CCC1C2CCC2(C)C(C3=CC(=O)OC3)CCC12O` (stereo unspecified) | at 35 µM (top of the series) | -78.36 |
| 33 | `O=C(/C=C/c1cccs1)NC(=S)NNC(=O)c1ccccc1O` | at 35 µM (top of the series) | -61.92 |
| 34 | `C[C@H]1CCCCO[C@H](CN(C)C(=O)Nc2ccc(C(F)(F)F)cc2)[C@@H](C)CN([C@@H](C)CO)C(=O)c2cc(NC(=O)Nc3ccccc3)ccc2O1` | at 35 µM (top of the series) | -24.64 |
| 35 | `C[C@H]1CCCCO[C@@H](CN(C)Cc2ccc(Cl)c(Cl)c2)[C@@H](C)CN([C@@H](C)CO)C(=O)c2cc(NC(=O)Nc3ccc(C(F)(F)F)cc3)ccc2O1` | at 35 µM (top of the series) | -28.05 |
| 36 | `O=C(Nc1ccc(N2CCN(C(=O)c3cccs3)CC2)cc1)c1ccc([N+](=O)[O-])o1` | at 35 µM (top of the series) | 31.97 |
| 37 | `COc1ccc(C2C(O)C(c3c[nH]c4ccccc34)=NN2C(=O)CCl)cc1` (stereo unspecified) | at 35 µM (top of the series) | -86.96 |
| 38 | `C[C@@H]1CN([C@@H](C)CO)C(=O)Cc2cc(N(C)C)ccc2O[C@H]1CN(C)Cc1ccc(C(=O)Nc2ccccc2N)cc1` | at 35 µM (top of the series) | 3.728 |
| 39 | `C[C@H](CO)N1C[C@H](C)[C@@H](CN(C)S(=O)(=O)c2ccc(F)cc2)OCCCC[C@H](C)Oc2ccc(NS(=O)(=O)c3ccc(Cl)cc3)cc2C1=O` | at 35 µM (top of the series) | -41.75 |

Repeated from the top, 3 entries:

{"compound": "COc1ccc(S(=O)(=O)N(C)C[C@@H]2OCCCC[C@H](C)Oc3ccc(NS(=O)(=O)c4ccc(Cl)cc4)cc3C(=O)N([C@H](C)CO)C[C@@H]2C)cc1", "tested on / at": "at 35 µM (top of the series)", "activity change (%)": "-15.21"}
{"compound": "C[C@H]1CN([C@@H](C)CO)S(=O)(=O)c2ccc(C#Cc3ccc(F)cc3)cc2O[C@H]1CN(C)C(=O)NC1CCCCC1", "tested on / at": "at 35 µM (top of the series)", "activity change (%)": "-7.642"}
{"compound": "COc1ccc(NC(=O)C(=O)NCC2CCCN2S(=O)(=O)c2ccc(C)cc2)cc1", "stereo": "stereo unspecified", "tested on / at": "at 35 µM (top of the series)", "activity change (%)": "-44.43"}

Source: PubChem BioAssay AID743020 (Broad Institute, 2013).